Experimental findings from PMC7862700 are described below.

The entries are a selection whose mix differs from that of the whole data set. At the low end of the ranking, values are background and their order means little.

For the experiment, the target named is T1, FEV (UniProt Q99581).
T1 sequence: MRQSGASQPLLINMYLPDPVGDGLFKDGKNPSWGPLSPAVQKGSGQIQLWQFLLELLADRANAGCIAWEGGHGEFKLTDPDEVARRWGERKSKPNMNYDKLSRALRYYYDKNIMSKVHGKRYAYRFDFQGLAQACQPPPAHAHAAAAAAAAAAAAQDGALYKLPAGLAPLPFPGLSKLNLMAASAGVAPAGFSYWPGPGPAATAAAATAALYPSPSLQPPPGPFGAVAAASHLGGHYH
The experiment can be described thus: DAPPL (digital affinity profiling via proximity ligation, sequencing). Conditions: 10 mM Tris-HCl pH 7.5, 50 mM NaCl, 1 mM DTT, 4% glycerol, room temperature, 30 min; GST-TFs on glutathione beads, 16-mer random dsDNA library, 0.1% …; high values mean tight binding; double strand, one strand shown; scale: fold enrichment (6-mer frequency, TF over GST control).
In turn, TCCCCA had a binding signal of 1.33.

ACACTT returned a binding signal of 1.68.

TATTCA came in with a binding signal of 1.28.

Sequence CTTTTG yielded a binding signal of 1.3.

In the case of CTGTAA, the binding signal is 0.996.

GCTCCT came in with a binding signal of 1.46.

On to ATGAGC, for which the binding signal amounted to 1.24.

With TGGAAA, the binding signal stood at 1.03.

GATGGC: the binding signal was 1.33.

With TTTAAA, the binding signal was determined as 1.25.

Sequence TTAGCG returned a binding signal of 0.959.

As for AAGCAG, the binding signal is 1.09.

Regarding ACTCTA, the binding signal was 1.45.

As to CTATAA, the binding signal came out at 1.16.

For the sequence AGCTAC, the binding signal was 1.23.

As for TAGTAA, the binding signal amounted to 0.946.

Take TTTCTT: the binding signal was found to be 1.23.

TACATT registered a binding signal of 1.19.

As to CTGCAA, the binding signal is 1.29.

As to TTACAC, the binding signal was found to be 1.24.

For TTAATT, the binding signal was found to be 1.31.

In the case of GTATAT, the binding signal is 1.06.

With AATAAC, the binding signal was determined as 1.25.

As to ATCTAC, the binding signal amounted to 1.33.

Sequence TCCCGC showed a binding signal of 1.46.

CAATCC came in with a binding signal of 1.17.

The sequence AATTCA displayed a binding signal of 1.24.

Regarding CTGATA, the binding signal came to 1.14.

Sequence AGCCCT had a binding signal of 1.14.

CTTCAT: the binding signal turned out to be 1.46.

On to ATTTGA, for which the binding signal is 1.17.

In turn, AATCGC had a binding signal of 1.08.

The sequence TACTCT had a binding signal of 1.33.

As for TCCCCT, the binding signal stood at 1.71.

Turning to CCCGCA, the binding signal is 1.26.

The sequence ATGCAA returned a binding signal of 1.23.

As to TATACT, the binding signal was 1.29.

AATCAT came in with a binding signal of 1.1.

In turn, CTAAAG registered a binding signal of 1.29.

With ATTATT, the binding signal amounted to 1.15.
